From PubChem BioAssay AID1347076 (National Center for Advancing Translational Sciences (NCATS), 2019)
Out of some 400,000 compounds screened, about 13,000 (3.2%) were called active. The inconclusive results got no clear call from the source; some entries with a clear call stand among them for comparison. Calls come from the whole dose curve; as a rule, active = well fitted cell-killing curve with a large enough effect; inconclusive = small, poorly fitted or top-dose-only effect, or effect the other way; inactive = flat fitted curve, though single readings scatter. Potencies beside an inconclusive call are fits to weak or partial responses and may not hold up.
% is set by controls: 0 for no effect and ±100 for the full control effect; potency is the fitted concentration of half-maximal effect.

Test: qHTS assay for MDR1-selective chemotherapeutics: Primary screen using the drug-selected MDR subline cells KB-V1; note: nearly all actives have a fitted effect of over 60% in size
Settings: KB-V1 MDR cells viability, CellTiter-Glo, 72 h; activity change, negative = cytotoxicity: at 46.1 µM (top of the series)
Method in brief: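 Cytotoxicity via CellTiter-Glo luminescence after 72 h compound exposure at 37 degrees C. Cells: drug-selected KB-V1 line, DMEM phenol-red free plus 10% FBS. Compounds tested at multiple concentrations; normalized data fitted to concentration-effect curves.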
With O=C(COC(=O)c1cccc2c1C(=O)c1ccccc1C2=O)NC1CCCCC1 the Potency was active: 20.6 µM.
With CC(=O)Nc1nnc(SCC(=O)Nc2ccc3c(c2)OCCO3)s1 the Potency was inconclusive: 29.1 µM [rising, single point].
In the case of Cc1nnc(-c2cccc(Br)c2)c2cn(-c3ccc(Br)cc3)nc12, the Potency is reported as inconclusive: 0.651 µM [cytotoxic, full curve, poor fit].
In the case of COC(=O)c1c(NC(=O)COC(=O)c2ccccc2O)sc2c1CCCCC2, the Potency is reported as inconclusive: 29.1 µM [cytotoxic, single point].
In the case of O=C1CCc2cc(S(=O)(=O)Nc3ccc4c(c3)CCC4)ccc2N1, the Potency is reported as “inactive”.
With Cc1ccc(NC(=O)c2ccccc2OCC(=O)Nc2ccccc2F)cc1S(=O)(=O)N(C)C the Potency was inconclusive: 32.6 µM [cytotoxic, single point].
With CN1CCN(C2Cc3ccccc3Sc3cc(C(F)(F)F)ccc32)CC1 (stereo not given) the Potency was “inactive”.
With Cc1ccc(-c2csc(NC(=O)c3cccc([N+](=O)[O-])c3)n2)cc1 the Potency was “inactive”.
In the case of O=C(/C=C/c1ccccc1Cl)N(Cc1ccc(Cl)cc1)C1CCS(=O)(=O)C1 (stereo not given), the Potency is reported as inconclusive: 29.1 µM [cytotoxic, single point].
For CC(C)(C)NC(=O)CCSc1nc(-c2ccc3c(c2)OCO3)cc(C(F)(F)F)n1, the Potency was inconclusive: 9.2 µM [cytotoxic, partial curve].
In the case of Cn1c(=O)c(C(=O)COc2ccc(F)cc2Cl)c(N)n(Cc2ccccc2)c1=O, the Potency is reported as “inactive”.
In the case of COc1cc(-c2cc(NC=O)c3ncc(-c4cccc(C(F)(F)F)c4)n3c2)cc(OC)c1OC, the Potency is reported as inconclusive: 29.1 µM [cytotoxic, single point].
With c1ccc2[nH]c(-c3ccc4c(c3)OCO4)nc2c1 the Potency was active: 13 µM.
In the case of Cc1cccc(C(=O)NCCC(=O)NCc2ccccc2F)c1, the Potency is reported as “inactive”.
In the case of O=C(O)CSc1nnc(COc2cccc3cccnc23)n1-c1cccc(C(F)(F)F)c1, the Potency is reported as inconclusive: 4.61 µM [rising, full curve].
For O=C1CC(c2ccccc2)Cc2nc3ncnn3cc21 (stereo not given), the Potency was inconclusive: 18.4 µM [cytotoxic, single point].
For CCc1nnc(NC(=O)CSc2nnc(-c3ccccc3O)n2-c2ccc(C)cc2)s1, the Potency was inconclusive: 16.4 µM [cytotoxic, single point].
In the case of O=C(Oc1c(CN2CCOCC2)cc(Cl)c2cccnc12)c1cccs1, the Potency is reported as inconclusive: 9.2 µM [cytotoxic, partial curve, poor fit].
With CC(C)(C)n1nnnc1C(c1cccs1)N1CCN(C/C=C/c2ccccc2)CC1 (stereo not given) the Potency was inconclusive: 29.1 µM [cytotoxic, single point].
For Cc1ccc(-n2cnc3cc(C(=O)NC4CCCCCC4)ccc32)cc1Cl, the Potency was “inactive”.
With Clc1cccc(Nc2c3c(nc4ncnn24)CCC3)c1 the Potency was inconclusive: 18.4 µM [cytotoxic, single point].
In the case of O=C(Nc1nc(-c2ccccc2)c(C(=O)c2ccccc2)s1)c1ccc(S(=O)(=O)N2CCCCC2)cc1, the Potency is reported as inconclusive: 20.6 µM [cytotoxic, single point].
With O=C(CN1c2cccc3cccc(c23)S1(=O)=O)NCCc1ccccc1 the Potency was active: 20.6 µM.
For CCOC(=O)c1ccc(N2C(=O)C3CCCN3C2=S)cc1 (stereo not given), the Potency was inconclusive: 25.9 µM [rising, partial curve].
For CC(C(=O)O)N(c1ccccc1Cl)S(C)(=O)=O (stereo not given), the Potency was “inactive”.
In the case of Clc1ccccc1CN1CCN(/N=C/C=C/c2ccco2)CC1, the Potency is reported as “inactive”.
In the case of COC(=O)c1sc(NC(=O)C(C)C)c(C(=O)OC)c1C, the Potency is reported as “inactive”.
With CC1CCc2c(sc(NC(=O)c3cc(-c4ccc(Br)cc4)on3)c2C(N)=O)C1 (stereo not given) the Potency was inconclusive: 16.4 µM [rising, single point].
For COc1ccc(-c2nn(C)c3sc(C(=O)N4CCN(c5cccc(Cl)c5)CC4)cc23)cc1OC, the Potency was “inactive”.
In the case of O=C(Nc1ccc(Cl)c([N+](=O)[O-])c1)c1cnccn1, the Potency is reported as inconclusive: 7.31 µM [rising, partial curve, poor fit].
With COc1ccc(OC)c(/C=N/NC(=O)c2ccc(=O)[nH]n2)c1 the Potency was inconclusive: 23.1 µM [rising, single point].
In the case of CCOc1c(OC(C)=O)ccc(/C=C/c2ccc3cccc(OC(C)=O)c3n2)c1[N+](=O)[O-], the Potency is reported as active: 11.6 µM.
For O=C(O)/C(=C1\OC(=O)c2ccccc21)c1ccccc1, the Potency was inconclusive: 20.6 µM [rising, single point].
In the case of O=C(O)Cn1nnnc1SCC(=O)Nc1ccc(F)cc1F, the Potency is reported as inconclusive: 16.4 µM [rising, partial curve, poor fit].
For O=C(O)c1cccc2c1Cc1cc([N+](=O)[O-])ccc1-2, the Potency was “inactive”.
For CCNc1nc(NC(C)(C)C)nc(N2CCCCC2)n1, the Potency was “inactive”.
With CCOC(=O)N1CCN(C(=O)c2ccc3c(c2)N(Cc2ccccc2)CCS3)CC1 the Potency was inconclusive: 18.4 µM [cytotoxic, single point].
With O=C(CSc1nnc(CCc2nc3ccccc3[nH]2)n1-c1ccccc1)NCc1ccccc1 the Potency was “inactive”.
For COc1cccc(C(=O)NC(=S)Nc2ccccc2N2CCCCC2)c1, the Potency was “inactive”.
In the case of Cc1c(CNCCCc2ccccc2)c(C(=O)O)c(C)n1Cc1cccc(Cl)c1, the Potency is reported as inconclusive: 20.6 µM [rising, partial curve].
With Cc1ccc(S(=O)(=O)N2CCCOC2CNC(=O)C(=O)NCc2ccccc2C)cc1 (stereo not given) the Potency was inconclusive: 14.6 µM [cytotoxic, partial curve, poor fit].
For COc1ccc(NC(=O)C2CCN(S(=O)(=O)c3c(C)noc3/C=C/c3ccc(C)cc3)CC2)cc1Cl, the Potency was inconclusive: 25.9 µM [rising, single point].
With CCN(CC(=O)Nc1ccc(NC(C)=O)cc1)C(=O)c1cccc(N2C(=O)c3ccccc3C2=O)c1 the Potency was inconclusive: 23.1 µM [rising, single point].
With COc1cccc(C(=O)NCCN2CCN(c3ccc(Cl)cc3)CC2)c1 the Potency was inconclusive: 9.2 µM [cytotoxic, partial curve, poor fit].
For Cc1ccc(C)c(NC(=O)Nc2csc3c2CCCC3)c1, the Potency was “inactive”.
With COc1cc(/C=N/NC(=O)c2ccc3nc[nH]c3c2)cc(OC)c1OC the Potency was “inactive”.
In the case of COc1ccc(OCCNC(=O)C(c2ccccc2)c2ccccc2)cc1, the Potency is reported as inconclusive: 0.651 µM [cytotoxic, full curve].
With COc1ccccc1NC(=O)Cn1c(=O)n(Cc2nc(-c3ccccc3)no2)c(=O)c2ccccc21 the Potency was “inactive”.
For O=C(CN1N=C(c2ccccc2)CCC1=O)NCCN1CCc2ccccc2C1, the Potency was active: 9.2 µM.
For O=C(NCc1ccccc1)c1cccc(NC(=O)c2ccco2)c1, the Potency was active: 8.2 µM.
For CCOc1ccc2nc(N3CCCC(C(=O)NCc4ccc(C)cc4)C3)sc2c1 (stereo not given), the Potency was “inactive”.
With CCOC(=O)NCc1ccccc1 the Potency was “inactive”.
For O=C(/C=C/c1cccc(Cl)c1)NNC(=O)c1ccncc1, the Potency was “inactive”.
With O=C(CCCc1nc2ccccc2s1)N1CCN(c2ccccc2)CC1 the Potency was “inactive”.
With Cc1ccc(S(=O)(=O)N(C)C[C@H]2OCCCC[C@H](C)Oc3ccc(NC(=O)Nc4cccc5ccccc45)cc3C(=O)N([C@@H](C)CO)C[C@H]2C)cc1 the Potency was inconclusive: 29.1 µM [rising, single point].
In the case of O=c1[nH]c(=S)ccn1C1OC(CO)C(O)C1O (stereo not given), the Potency is reported as inconclusive: 23.1 µM [cytotoxic, single point].
With Cc1cc(O)cc(O)c1C(=O)Cc1ccccc1 the Potency was “inactive”.
For Cc1sc2nc(CN3CCOCC3)nc(Cl)c2c1C, the Potency was “inactive”.
With COc1ccc(OCC(=O)Nc2ccc3c(c2)CCC3)cc1 the Potency was inconclusive: 29.1 µM [rising, single point].
For CCCCNC(=O)C1c2ccccc2OCC(=O)N1C1CC1 (stereo not given), the Potency was inconclusive: 29.1 µM [rising, single point].
In the case of CCOC(=O)c1cnc(SCC(=O)Nc2cc(OC)ccc2OC)nc1N, the Potency is reported as inconclusive: 3.66 µM [cytotoxic, full curve, poor fit].
With Cc1c(Cl)c([N+](=O)[O-])nn1CCCC(=O)O the Potency was “inactive”.
In the case of CCOc1ccc(NC(=O)CC2C(=O)N(c3ccc(OC)cc3)C(=O)N2CCc2cccs2)cc1 (stereo not given), the Potency is reported as active: 18.4 µM.
With O=[N+]([O-])c1ccc(NC(=S)NCc2ccc(F)cc2)cc1 the activity change, negative = cytotoxicity was inconclusive: -45.9%.
In the case of COc1ccccc1-c1nnc(NC(=O)c2ccccc2F)o1, the Potency is reported as inconclusive: 29.1 µM [cytotoxic, single point].
For CCN(CC)S(=O)(=O)c1ccc2oc(SCC3CN=C(c4ccc(OC)cc4)S3)nc2c1 (stereo not given), the Potency was inconclusive: 18.4 µM [cytotoxic, single point].
With O=C(CCc1ccc(S(=O)(=O)N2CCOCC2)cc1)Nc1ccc(F)c(F)c1F the Potency was “inactive”.
For NC(=O)/C=C\C(=O)Nc1cccc(C(F)(F)F)c1, the Potency was “inactive”.
For O=C(O)Cn1ccc2cc(S(=O)(=O)N3CCCCC3)ccc21, the Potency was “inactive”.
In the case of COC(=O)c1ccc(C(=O)OC)c(NC(=S)N2CCN(c3ccccc3)CC2)c1, the Potency is reported as inconclusive: 14.6 µM [cytotoxic, single point].
With C#CCOCCOCCOCCNc1nc(N2CCN(C(=O)[C@H](CCCCN)n3cc(CN)nn3)CC2)nc(N2CCN(C(=O)[C@H](CCC(=O)O)n3cc([C@@H](N)CCSC)nn3)CC2)n1 the Potency was “inactive”.
With COc1ccc(Cl)cc1NC(=O)CN(C)CC(=O)Nc1ccc(Br)cc1 the Potency was inconclusive: 4.11 µM [cytotoxic, full curve].
In the case of COc1cc(-c2ccc(NC(=O)CN3CCC(C)CC3)c(OC)c2)ccc1NC(=O)CN1CCC(C)CC1, the Potency is reported as active: 16.4 µM.
In the case of CC(=O)N(CC(=O)O)c1ccccc1C(=O)O, the Potency is reported as “inactive”.
With Cc1ccc2sc(C)[n+](CCO)c2c1 the Potency was “inactive”.
